# Laboratory results from the supplement of paper PMC10849652.
# Protein sequences, listed by entry. Tags and fused reporters are not part of them. Lines headed by an entry give the natural chain unless they say otherwise; changes in a name come on top.
# UniProt Q96PM5: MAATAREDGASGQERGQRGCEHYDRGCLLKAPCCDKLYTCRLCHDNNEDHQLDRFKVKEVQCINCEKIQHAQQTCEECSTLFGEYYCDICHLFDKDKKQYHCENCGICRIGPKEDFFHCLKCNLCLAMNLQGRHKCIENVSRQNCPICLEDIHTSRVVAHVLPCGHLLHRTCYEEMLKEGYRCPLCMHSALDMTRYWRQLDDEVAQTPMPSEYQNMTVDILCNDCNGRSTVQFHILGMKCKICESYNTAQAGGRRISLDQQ
# UniProt Q9Y2P8: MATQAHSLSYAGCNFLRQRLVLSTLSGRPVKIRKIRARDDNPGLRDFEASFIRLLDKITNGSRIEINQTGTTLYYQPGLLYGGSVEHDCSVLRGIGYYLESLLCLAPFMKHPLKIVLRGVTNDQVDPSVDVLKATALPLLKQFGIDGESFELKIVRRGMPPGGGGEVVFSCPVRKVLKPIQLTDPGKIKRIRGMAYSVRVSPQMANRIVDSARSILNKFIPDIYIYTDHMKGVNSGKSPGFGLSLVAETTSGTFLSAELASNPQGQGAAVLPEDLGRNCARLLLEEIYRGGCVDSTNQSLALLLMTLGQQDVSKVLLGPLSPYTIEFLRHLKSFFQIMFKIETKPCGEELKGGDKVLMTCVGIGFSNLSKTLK
# UniProt P49756, whole entry, looked up: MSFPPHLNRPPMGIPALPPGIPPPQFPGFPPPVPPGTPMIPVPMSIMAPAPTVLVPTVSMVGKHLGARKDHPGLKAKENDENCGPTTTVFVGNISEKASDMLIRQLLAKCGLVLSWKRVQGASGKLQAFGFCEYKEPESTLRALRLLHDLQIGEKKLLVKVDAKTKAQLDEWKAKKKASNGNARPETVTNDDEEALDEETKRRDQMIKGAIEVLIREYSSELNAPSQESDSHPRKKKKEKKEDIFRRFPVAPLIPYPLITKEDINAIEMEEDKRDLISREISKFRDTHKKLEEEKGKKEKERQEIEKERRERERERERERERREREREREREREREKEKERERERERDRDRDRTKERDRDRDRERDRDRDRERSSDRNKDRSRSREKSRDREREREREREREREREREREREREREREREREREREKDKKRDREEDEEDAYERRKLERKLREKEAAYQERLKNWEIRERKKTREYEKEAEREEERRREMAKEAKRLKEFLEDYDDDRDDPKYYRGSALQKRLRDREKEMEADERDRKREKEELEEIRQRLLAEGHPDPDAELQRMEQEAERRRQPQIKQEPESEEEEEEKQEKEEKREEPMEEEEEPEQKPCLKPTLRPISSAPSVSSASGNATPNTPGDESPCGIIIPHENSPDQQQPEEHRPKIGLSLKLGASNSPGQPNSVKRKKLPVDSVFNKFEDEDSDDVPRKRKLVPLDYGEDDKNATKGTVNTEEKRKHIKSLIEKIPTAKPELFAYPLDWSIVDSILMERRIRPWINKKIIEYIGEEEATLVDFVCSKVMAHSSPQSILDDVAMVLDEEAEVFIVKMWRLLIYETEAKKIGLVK
# UniProt P53805: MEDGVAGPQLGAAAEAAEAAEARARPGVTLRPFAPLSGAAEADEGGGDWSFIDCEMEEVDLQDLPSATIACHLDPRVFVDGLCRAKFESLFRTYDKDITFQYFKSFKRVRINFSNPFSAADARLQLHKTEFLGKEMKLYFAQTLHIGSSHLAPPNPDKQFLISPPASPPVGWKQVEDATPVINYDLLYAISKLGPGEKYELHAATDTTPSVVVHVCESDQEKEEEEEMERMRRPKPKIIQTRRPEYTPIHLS
# UniProt Q96HR9: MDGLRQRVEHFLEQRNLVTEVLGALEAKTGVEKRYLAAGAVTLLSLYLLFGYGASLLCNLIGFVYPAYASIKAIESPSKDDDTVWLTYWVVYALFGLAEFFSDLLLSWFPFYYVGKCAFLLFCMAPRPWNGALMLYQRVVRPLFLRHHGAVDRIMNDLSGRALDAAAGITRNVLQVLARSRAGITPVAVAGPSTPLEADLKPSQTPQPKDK
# UniProt Q96AA3: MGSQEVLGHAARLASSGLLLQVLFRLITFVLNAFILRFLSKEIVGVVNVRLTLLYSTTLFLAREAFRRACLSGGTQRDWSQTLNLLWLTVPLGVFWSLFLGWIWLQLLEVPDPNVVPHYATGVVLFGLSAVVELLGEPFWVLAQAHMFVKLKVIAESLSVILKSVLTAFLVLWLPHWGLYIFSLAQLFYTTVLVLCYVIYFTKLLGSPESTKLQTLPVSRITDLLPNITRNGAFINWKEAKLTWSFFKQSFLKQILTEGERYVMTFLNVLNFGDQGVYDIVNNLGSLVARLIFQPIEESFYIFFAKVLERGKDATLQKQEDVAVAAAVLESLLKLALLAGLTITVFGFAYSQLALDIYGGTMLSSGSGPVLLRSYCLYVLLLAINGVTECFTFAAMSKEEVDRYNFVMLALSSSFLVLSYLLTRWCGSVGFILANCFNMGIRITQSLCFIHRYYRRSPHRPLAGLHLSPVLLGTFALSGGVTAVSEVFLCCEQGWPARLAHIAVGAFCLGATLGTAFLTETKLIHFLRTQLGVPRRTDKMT
# UniProt Q9P2R6: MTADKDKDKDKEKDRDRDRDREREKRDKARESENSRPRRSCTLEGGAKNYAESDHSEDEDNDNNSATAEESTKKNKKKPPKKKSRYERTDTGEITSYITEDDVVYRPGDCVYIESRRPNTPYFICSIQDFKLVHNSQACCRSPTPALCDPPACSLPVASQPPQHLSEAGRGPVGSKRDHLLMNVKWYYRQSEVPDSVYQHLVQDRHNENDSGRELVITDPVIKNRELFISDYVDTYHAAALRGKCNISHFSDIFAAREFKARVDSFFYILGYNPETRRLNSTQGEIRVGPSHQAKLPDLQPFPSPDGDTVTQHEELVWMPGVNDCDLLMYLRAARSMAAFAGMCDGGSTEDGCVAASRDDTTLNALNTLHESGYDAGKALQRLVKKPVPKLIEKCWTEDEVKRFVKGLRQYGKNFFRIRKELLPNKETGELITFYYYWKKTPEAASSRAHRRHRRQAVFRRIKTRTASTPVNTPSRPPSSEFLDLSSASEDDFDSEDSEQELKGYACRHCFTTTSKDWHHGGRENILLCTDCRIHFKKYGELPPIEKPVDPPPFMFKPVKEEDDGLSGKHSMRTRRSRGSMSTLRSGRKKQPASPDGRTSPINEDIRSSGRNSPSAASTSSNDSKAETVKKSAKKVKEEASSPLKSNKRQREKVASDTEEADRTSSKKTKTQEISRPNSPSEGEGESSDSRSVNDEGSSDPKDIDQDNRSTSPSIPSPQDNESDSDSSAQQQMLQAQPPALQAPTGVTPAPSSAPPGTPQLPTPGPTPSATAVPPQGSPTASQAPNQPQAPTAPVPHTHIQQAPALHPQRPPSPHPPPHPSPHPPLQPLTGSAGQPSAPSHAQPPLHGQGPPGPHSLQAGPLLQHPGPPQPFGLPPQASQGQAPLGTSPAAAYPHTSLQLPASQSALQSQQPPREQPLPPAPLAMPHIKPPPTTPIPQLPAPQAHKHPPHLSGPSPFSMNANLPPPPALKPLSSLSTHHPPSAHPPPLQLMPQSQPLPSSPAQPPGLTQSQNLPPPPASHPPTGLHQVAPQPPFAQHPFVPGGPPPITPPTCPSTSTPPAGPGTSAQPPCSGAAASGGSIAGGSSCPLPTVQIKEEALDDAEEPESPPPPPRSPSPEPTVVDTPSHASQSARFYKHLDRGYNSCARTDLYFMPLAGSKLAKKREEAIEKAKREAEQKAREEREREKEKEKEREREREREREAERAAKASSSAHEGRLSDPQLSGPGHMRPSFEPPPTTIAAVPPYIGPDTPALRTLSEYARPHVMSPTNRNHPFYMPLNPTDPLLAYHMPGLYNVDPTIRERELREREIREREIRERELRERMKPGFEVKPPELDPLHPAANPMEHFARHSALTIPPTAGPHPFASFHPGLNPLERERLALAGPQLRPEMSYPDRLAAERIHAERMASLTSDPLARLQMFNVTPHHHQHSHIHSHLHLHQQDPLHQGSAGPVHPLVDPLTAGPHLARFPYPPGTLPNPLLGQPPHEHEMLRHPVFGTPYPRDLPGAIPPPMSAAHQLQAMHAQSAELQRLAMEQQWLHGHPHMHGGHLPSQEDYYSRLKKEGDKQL
# UniProt Q96I25: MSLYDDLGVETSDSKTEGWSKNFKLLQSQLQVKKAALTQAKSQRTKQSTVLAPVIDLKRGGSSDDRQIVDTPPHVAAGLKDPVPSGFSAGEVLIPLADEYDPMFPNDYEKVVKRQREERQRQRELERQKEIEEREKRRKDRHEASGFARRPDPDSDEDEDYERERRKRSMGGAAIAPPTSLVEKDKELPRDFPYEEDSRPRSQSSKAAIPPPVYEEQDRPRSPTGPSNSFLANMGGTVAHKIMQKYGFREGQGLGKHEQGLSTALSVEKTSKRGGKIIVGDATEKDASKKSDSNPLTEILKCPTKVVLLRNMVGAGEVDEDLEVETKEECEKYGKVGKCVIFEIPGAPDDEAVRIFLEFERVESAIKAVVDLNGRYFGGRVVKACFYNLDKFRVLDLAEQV
# UniProt Q8TAC1: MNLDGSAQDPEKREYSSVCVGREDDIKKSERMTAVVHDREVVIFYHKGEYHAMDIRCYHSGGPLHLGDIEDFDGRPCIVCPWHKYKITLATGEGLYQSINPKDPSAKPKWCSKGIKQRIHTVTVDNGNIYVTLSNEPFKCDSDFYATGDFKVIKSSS
# UniProt P35250, whole entry, looked up: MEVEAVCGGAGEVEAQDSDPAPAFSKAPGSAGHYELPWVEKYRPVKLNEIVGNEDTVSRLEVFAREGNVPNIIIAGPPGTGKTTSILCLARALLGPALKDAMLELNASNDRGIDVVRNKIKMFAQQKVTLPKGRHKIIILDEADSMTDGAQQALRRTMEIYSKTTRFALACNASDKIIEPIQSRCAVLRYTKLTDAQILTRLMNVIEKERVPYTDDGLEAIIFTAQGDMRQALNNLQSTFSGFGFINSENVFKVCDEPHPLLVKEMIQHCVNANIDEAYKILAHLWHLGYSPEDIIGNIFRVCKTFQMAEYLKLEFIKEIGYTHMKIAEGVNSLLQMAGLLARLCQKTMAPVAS
# UniProt Q5TC82: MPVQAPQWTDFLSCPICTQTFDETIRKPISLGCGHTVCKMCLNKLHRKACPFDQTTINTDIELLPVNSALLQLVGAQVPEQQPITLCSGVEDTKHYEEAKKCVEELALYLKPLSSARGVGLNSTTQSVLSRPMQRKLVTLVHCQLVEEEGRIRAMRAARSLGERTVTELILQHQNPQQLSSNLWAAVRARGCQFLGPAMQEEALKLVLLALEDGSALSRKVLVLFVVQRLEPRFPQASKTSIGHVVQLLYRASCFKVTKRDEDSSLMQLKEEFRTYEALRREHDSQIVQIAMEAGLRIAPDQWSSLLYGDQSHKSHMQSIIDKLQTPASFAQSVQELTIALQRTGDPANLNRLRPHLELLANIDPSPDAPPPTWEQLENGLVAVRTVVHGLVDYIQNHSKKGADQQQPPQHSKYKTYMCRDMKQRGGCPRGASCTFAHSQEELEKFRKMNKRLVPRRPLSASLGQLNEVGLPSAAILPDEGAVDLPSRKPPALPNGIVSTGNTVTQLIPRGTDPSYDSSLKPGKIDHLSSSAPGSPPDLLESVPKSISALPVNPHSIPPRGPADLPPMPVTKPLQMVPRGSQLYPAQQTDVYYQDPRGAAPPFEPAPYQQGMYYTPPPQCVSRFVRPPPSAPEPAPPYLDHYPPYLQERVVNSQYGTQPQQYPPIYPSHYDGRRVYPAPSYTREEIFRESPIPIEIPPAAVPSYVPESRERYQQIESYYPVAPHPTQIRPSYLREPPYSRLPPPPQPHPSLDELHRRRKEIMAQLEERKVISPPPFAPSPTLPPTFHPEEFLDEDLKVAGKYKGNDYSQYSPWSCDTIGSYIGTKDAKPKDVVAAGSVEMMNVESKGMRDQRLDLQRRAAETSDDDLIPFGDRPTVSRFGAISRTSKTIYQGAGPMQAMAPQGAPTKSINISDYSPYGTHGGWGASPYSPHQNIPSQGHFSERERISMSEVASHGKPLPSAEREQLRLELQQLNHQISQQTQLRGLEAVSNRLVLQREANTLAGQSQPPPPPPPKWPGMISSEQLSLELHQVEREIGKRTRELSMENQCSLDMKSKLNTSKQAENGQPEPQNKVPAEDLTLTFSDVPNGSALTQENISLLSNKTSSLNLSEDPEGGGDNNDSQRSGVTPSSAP
# UniProt P42696: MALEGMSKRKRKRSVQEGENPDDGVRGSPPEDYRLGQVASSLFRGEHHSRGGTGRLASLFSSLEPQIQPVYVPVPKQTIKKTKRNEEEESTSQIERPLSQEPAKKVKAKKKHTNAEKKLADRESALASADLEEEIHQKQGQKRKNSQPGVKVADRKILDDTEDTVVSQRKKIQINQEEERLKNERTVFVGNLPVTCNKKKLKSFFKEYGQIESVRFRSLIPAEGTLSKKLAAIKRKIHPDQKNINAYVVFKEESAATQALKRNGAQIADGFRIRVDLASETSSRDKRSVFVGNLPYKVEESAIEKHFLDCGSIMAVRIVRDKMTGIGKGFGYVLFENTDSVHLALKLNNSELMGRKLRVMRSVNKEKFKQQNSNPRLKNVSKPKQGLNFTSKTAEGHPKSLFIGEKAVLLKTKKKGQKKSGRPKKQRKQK
# The other results are listed elsewhere or left out.
# Assays:
# Experiment in all cases: log2 fold change, soluble protein after heating vs DMSO (PISA); higher = thermal stabilisation; K562 lysate, 10 uM; active = over 0.2 and 3.5 SD of the protein, either way, in both replicates (recomputed)
# vemurafenib = compound: CCCS(=O)(=O)Nc1ccc(F)c(C(=O)c2c[nH]c3ncc(-c4ccc(Cl)cc4)cc23)c1F [vemurafenib]
# In short: (§1)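 Quantification was by TMTpro 16plex LC-MS/MS with equalised channel sums, applied to the supernatant after 21,000xg for 90 min. Samples were crude K562 extract at 1 mg/mL protein in PBS pH 7.4 with 1 mM MgCl2, treated with 10 μM compound for 30 min, heated for 3 min across 48°C-58°C, pooled and brought to 0.5% NP-40 at 4°C. Values are log-two fold changes in thermal stability relative to solvent controls, from duplicates.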
# [1] = compound: CCCS(=O)(=O)Nc1ccc(F)c(C(=O)c2c[nH]c3ncc(Cl)cc23)c1F
# In short: as §1
# barasertib = compound: CCN(CCCOc1ccc2c(Nc3cc(CC(=O)Nc4cccc(F)c4)[nH]n3)ncnc2c1)CCOP(=O)(O)O [barasertib]
# In short: as §1
# [2] = compound: CC[C@@H]1C(=O)N(C)c2cnc(Nc3ccc(C(=O)NC4CCN(C)CC4)cc3OC)nc2N1C1CCCC1
# In short: as §1
# volasertib = compound: CC[C@@H]1C(=O)N(C)c2cnc(Nc3ccc(C(=O)N[C@H]4CC[C@H](N5CCN(CC6CC6)CC5)CC4)cc3OC)nc2N1C(C)C [volasertib]
# In short: as §1
# [3] = compound: CCn1c(C(=O)N(C2CC2)C2CC2)cc2c3c(ncn3C)c(Nc3cc(C)n(C)n3)nc21
# In short: as §1
# [4] = compound: CCn1cc(-c2ccnc3[nH]c(-c4cccc(CN(C)C)c4)cc23)c(-c2ccc(NC(=O)N(C)C)cc2)n1
# In short: as §1
# [5] = compound: CN1CCC(CNc2ccc3ncc(-c4cccc(OC(F)(F)F)c4)n3n2)CC1
# In short: as §1
# saracatinib = compound: CN1CCN(CCOc2cc(OC3CCOCC3)c3c(Nc4c(Cl)ccc5c4OCO5)ncnc3c2)CC1 [saracatinib]
# In short: as §1
# sotrastaurin = compound: CN1CCN(c2nc(C3=C(c4c[nH]c5ccccc45)C(=O)NC3=O)c3ccccc3n2)CC1 [sotrastaurin]
# In short: as §1
Target,log2 fold change (vemurafenib),log2 fold change [1],log2 fold change (barasertib),log2 fold change [2],log2 fold change (volasertib),log2 fold change [3],log2 fold change [4],log2 fold change [5],log2 fold change (saracatinib),log2 fold change (sotrastaurin)
RCHY1 (UniProt Q96PM5),inactive: -0.087,inactive: -0.037,inactive: -0.008,inactive: -0.112,inactive: 0.032,inactive: -0.073,inactive: 0.37,inactive: 0.001,inactive: -0.033,inactive: -0.201
RCL1 (UniProt Q9Y2P8),inactive: 0.057,inactive: 0.029,inactive: 0.005,inactive: -0.046,inactive: -0.038,inactive: 0.022,inactive: 0.002,inactive: 0.069,inactive: 0.003,inactive: -0.006
RBM25 (UniProt P49756),inactive: -0.008,inactive: -0.004,inactive: 0.029,inactive: 0.099,inactive: 0.001,inactive: 0.045,inactive: -0.013,inactive: 0.018,inactive: 0.009,inactive: -0.036
RCAN1 (UniProt P53805),inactive: 0.028,inactive: 0.061,inactive: 0.034,inactive: -0.022,inactive: -0.026,inactive: -0.06,inactive: -0.024,inactive: 0.041,inactive: 0.025,inactive: -0.056
REEP6 (UniProt Q96HR9),inactive: 0.072,inactive: 0.021,inactive: 0.093,inactive: -0.022,inactive: 0.077,inactive: 0,active: -0.358,inactive: 0.072,inactive: 0.094,inactive: 0.017
RFT1 (UniProt Q96AA3),inactive: 0.07,inactive: -0.042,inactive: -0.014,inactive: 0.023,inactive: 0.028,inactive: 0.068,inactive: -0.007,inactive: 0.056,inactive: 0.011,inactive: 0.022
RERE (UniProt Q9P2R6),inactive: 0.296,inactive: 0.051,inactive: 0.065,inactive: -0.065,inactive: -0.057,inactive: 0.039,inactive: -0.31,inactive: 0.212,inactive: 0.057,inactive: 0.035
RBM17 (UniProt Q96I25),inactive: 0.002,inactive: 0.033,inactive: 0.006,inactive: 0.007,inactive: -0.012,inactive: 0.012,inactive: 0.049,inactive: -0.101,inactive: -0.008,inactive: -0.027
RFESD isoform 2 (UniProt Q8TAC1),inactive: 0.043,inactive: 0.03,inactive: -0.022,inactive: 0.024,inactive: -0.002,inactive: -0.004,inactive: 0.029,inactive: 0.032,inactive: 0.027,inactive: -0.071
RFC2 (UniProt P35250),inactive: -0.043,inactive: 0.007,inactive: 0.038,inactive: -0.095,inactive: -0.09,inactive: 0.024,inactive: -0.068,inactive: 0.023,inactive: -0.005,inactive: 0.03
RC3H1 (UniProt Q5TC82),inactive: 0.024,inactive: -0.023,inactive: -0.031,inactive: 0.062,inactive: -0.054,inactive: 0.044,inactive: 0.12,inactive: 0.056,inactive: -0.051,inactive: 0.005
RBM34 (UniProt P42696),inactive: -0.038,inactive: 0.038,inactive: 0.054,inactive: -0.046,inactive: -0.026,inactive: -0.032,inactive: 0.008,inactive: -0.07,inactive: 0.007,inactive: -0.018
RBM33 (UniProt Q96EV2),inactive: 0.08,inactive: 0.042,inactive: 0.038,inactive: 0.054,inactive: 0.012,inactive: 0.02,inactive: 0.134,inactive: -0.002,inactive: 0.016,inactive: 0.027
